From PMC12225155
Results are given in words; binding and its absence hold for the method and conditions named. In cells and extracts the contact can be indirect. Some results given as binding are weak or reduced against the parent protein; the word gives no strength. Values belong to the substance of their own block, whether it stands above or below them.

The chains behind the UniProt entries cited, without tags or fusion partners. Where a name states a change or a piece, a line headed by the entry shows the natural chain unless it says otherwise. A line that says so, or that is headed by a name, gives the form on record, which may keep a tag or linker.
UniProt Q69YN4: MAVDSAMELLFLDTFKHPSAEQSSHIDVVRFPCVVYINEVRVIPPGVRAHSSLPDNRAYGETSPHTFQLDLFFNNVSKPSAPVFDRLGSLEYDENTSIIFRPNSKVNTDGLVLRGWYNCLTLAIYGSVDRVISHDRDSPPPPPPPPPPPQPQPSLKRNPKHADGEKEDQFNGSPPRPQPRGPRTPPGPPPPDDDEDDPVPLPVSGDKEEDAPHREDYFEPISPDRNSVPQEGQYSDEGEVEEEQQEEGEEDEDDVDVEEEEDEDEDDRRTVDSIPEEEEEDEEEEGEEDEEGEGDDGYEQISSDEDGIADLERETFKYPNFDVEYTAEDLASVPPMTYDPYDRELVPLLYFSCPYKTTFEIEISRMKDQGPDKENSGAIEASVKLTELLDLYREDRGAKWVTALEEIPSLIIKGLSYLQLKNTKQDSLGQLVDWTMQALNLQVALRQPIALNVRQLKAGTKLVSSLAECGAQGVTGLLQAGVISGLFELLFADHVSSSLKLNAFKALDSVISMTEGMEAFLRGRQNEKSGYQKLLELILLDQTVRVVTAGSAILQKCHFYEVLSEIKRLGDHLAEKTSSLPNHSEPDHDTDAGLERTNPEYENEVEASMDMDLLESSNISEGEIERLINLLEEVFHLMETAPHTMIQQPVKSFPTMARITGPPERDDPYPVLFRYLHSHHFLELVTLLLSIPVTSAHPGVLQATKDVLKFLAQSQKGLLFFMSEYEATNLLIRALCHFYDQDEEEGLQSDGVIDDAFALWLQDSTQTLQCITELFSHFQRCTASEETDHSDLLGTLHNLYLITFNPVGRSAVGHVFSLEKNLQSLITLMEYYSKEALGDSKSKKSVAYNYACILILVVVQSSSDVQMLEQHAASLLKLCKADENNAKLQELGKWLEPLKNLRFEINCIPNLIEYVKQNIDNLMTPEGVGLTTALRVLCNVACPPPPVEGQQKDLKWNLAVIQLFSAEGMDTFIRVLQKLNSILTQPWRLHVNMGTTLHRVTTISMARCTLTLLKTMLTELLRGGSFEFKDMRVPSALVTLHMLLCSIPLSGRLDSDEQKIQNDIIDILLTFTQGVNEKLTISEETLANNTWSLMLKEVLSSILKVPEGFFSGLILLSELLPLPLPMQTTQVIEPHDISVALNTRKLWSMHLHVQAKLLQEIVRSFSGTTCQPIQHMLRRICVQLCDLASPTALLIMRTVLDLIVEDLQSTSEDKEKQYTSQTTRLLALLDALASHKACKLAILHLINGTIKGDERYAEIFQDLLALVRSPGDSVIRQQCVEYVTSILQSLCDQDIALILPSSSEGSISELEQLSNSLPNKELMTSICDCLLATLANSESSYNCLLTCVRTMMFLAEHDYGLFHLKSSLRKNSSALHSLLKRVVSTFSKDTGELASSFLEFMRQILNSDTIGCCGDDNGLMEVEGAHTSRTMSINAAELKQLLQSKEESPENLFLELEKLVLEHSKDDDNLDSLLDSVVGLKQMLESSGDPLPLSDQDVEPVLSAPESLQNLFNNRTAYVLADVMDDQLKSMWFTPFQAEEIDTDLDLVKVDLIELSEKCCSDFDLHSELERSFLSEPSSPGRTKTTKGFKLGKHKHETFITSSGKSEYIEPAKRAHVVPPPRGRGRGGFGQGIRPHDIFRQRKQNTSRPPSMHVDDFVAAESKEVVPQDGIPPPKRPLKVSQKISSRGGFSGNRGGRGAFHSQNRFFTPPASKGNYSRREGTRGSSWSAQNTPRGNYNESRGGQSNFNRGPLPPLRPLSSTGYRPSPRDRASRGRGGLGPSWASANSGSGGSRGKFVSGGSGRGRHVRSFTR
KIAA1429 with serine 1579 replaced by alanine (KIAA1429-SA) (Q69YN4, form named): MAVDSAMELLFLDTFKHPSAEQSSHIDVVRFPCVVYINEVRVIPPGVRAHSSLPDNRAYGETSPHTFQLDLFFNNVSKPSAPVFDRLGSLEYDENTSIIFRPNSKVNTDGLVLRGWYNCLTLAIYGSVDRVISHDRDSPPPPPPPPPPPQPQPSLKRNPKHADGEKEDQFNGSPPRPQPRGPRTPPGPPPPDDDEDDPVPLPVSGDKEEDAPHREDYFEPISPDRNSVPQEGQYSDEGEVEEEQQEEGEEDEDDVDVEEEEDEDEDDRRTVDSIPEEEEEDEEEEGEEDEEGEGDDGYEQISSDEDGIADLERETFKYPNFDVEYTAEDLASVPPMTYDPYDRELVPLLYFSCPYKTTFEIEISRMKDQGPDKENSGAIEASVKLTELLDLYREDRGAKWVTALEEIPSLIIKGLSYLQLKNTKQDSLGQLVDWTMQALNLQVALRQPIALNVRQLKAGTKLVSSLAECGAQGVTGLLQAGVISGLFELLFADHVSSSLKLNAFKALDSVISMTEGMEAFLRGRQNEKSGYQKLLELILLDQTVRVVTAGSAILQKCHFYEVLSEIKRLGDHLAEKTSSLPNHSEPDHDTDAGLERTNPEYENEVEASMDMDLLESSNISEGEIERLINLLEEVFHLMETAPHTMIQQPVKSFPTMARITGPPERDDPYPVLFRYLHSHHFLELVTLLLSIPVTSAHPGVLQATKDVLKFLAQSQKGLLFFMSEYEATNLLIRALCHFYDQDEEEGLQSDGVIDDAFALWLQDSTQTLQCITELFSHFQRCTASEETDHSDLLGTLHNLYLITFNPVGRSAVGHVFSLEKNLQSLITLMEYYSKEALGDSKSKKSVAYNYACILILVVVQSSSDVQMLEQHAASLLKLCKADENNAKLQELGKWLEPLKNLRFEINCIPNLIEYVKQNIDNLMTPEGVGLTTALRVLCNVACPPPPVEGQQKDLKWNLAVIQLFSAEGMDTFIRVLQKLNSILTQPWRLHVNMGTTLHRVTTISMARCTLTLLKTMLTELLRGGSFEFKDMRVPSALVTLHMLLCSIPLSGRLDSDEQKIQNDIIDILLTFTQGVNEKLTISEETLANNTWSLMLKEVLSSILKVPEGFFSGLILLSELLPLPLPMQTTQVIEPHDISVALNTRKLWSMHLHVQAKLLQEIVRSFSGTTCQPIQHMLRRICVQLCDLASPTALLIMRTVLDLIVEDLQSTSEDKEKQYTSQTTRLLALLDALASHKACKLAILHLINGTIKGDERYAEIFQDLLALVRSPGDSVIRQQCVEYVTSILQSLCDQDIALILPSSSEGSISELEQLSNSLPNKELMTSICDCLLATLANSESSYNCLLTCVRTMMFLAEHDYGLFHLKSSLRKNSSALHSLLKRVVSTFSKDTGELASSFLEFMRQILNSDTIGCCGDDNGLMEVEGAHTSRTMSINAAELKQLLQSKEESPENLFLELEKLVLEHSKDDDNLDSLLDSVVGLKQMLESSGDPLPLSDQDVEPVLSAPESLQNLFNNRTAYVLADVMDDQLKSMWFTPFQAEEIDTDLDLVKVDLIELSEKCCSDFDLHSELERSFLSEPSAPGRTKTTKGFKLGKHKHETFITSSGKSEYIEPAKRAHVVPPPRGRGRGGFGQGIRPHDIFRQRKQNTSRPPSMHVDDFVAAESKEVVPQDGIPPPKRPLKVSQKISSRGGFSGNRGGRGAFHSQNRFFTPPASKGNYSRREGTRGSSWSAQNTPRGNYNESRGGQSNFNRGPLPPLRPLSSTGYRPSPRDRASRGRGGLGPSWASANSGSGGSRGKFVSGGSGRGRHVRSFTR
UniProt P52294: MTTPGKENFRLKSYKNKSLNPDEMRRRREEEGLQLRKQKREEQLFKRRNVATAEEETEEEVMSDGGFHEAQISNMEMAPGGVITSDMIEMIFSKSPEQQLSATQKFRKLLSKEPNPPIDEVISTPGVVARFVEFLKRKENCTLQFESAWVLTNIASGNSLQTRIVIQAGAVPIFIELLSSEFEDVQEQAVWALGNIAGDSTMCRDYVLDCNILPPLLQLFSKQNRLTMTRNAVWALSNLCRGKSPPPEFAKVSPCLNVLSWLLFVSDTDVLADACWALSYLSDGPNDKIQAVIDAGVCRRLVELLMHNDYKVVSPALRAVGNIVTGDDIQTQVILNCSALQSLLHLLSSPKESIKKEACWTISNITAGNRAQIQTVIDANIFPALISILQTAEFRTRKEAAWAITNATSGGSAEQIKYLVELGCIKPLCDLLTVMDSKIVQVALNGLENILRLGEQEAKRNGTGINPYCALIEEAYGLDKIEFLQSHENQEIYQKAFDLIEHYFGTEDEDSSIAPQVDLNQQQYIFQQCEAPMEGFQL
UniProt P15056: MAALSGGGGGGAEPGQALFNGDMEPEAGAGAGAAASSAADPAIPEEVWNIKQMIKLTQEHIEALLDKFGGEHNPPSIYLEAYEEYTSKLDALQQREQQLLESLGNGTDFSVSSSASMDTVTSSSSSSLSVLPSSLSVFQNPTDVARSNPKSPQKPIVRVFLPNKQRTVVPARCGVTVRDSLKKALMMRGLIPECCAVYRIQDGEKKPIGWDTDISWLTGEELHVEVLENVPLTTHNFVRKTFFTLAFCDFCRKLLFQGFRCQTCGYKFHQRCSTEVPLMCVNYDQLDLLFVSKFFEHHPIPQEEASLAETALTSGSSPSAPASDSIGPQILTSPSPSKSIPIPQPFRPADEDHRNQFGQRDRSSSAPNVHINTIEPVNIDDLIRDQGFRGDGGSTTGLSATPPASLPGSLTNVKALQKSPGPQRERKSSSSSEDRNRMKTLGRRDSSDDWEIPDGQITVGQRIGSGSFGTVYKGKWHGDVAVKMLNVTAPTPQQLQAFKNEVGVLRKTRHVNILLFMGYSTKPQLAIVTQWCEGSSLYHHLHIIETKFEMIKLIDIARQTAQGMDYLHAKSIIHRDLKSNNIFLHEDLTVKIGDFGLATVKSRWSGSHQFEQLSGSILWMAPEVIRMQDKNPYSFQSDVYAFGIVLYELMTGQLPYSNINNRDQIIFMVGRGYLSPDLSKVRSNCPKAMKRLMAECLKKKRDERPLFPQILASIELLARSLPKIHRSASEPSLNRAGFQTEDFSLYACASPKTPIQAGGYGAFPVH

Legend:
[1] = biological target: Vir-like m6A methyltransferase-associated (KIAA1429) protein, endogenous (human (endogenous in SW480, WiDr, HEK293T)) (UniProt Q69YN4); assay: co-IP; endogenous proteins; reciprocal co-immunoprecipitation from 2 mg cell lysate (IP lysis buffer), antibody overnight at 4 °C, protein A/G beads, western blot
[2] = biological target: importin α5, endogenous (human (endogenous in SW480, HEK293T)) (UniProt P52294); assay: co-IP; 293T and SW480 cells overexpressing KIAA1429-WT or KIAA1429-SA plasmid; IP and western blot for importin α5
[3] = biological target: BRAF, endogenous in SW480 cells (human (endogenous in SW480)) (UniProt P15056); assay: co-IP; endogenous proteins; reciprocal co-immunoprecipitation from 2 mg cell lysate (IP lysis buffer), antibody overnight at 4 °C, protein A/G beads, western blot
[4] = biological target: importin α5, endogenous (human (endogenous in SW480, HEK293T)) (UniProt P52294); assay: as above

binding [1]: binds
Substance: importin α5, endogenous (from UniProt P52294 1-538)

binding [2]: binds
Substance: KIAA1429 with serine 1579 replaced by alanine (KIAA1429-SA) (from UniProt Q69YN4 1-1812)

binding [3]: binds | binding [4]: binds
Substance: Vir-like m6A methyltransferase-associated (KIAA1429) protein, endogenous (from UniProt Q69YN4 1-1812)

binding [1]: binds
Substance: BRAF, endogenous in SW480 cells (from UniProt P15056 1-766) (enzyme)
